Experimental data reported in the supplement of paper PMC4604168 (melanoma cell lines).
The other results are listed elsewhere or left out. Single values are uncertain, as repeats are few or missing.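 The apoptosis fraction was the count of cleaved-PARP antibody-stained nuclei relative to all DNA-stained nuclei, imaged in 1,536-well plates. Screening doses were set so most cells survived, and baseline and induced cleaved-PARP levels vary greatly across cell lines.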

Key:
Test in all cases: cleaved PARP positive nuclei fraction relative to DMSO control; melanoma cells; higher = more apoptosis
Conditions in all cases: library dose: low library concentration; 72 h
501Mel = tested on: 501Mel
A101D = tested on: A101D
A2058 = tested on: A2058
A375 = tested on: A375
C32 = tested on: C32
CBRC008 = tested on: CBRC008 (line from a melanoma biopsy)
CBRC014 = tested on: CBRC014 (line from a melanoma biopsy)
CBRC016 = tested on: CBRC016 (line from a melanoma biopsy)
CBRC017 = tested on: CBRC017 (line from a melanoma biopsy)
CBRC034 = tested on: CBRC034 (line from a melanoma biopsy)
COLO792 = tested on: COLO792
COLO800 = tested on: COLO800
COLO829 = tested on: COLO829
G361 = tested on: G361
IPC-298 = tested on: IPC-298
IST-MEL1 = tested on: IST-MEL1
LB2518-MEL = tested on: LB2518-MEL
LOXIMVI = tested on: LOXIMVI
MEL-HO = tested on: MEL-HO

| SMILES | cleaved PARP positive nuclei fraction (501Mel) | cleaved PARP positive nuclei fraction (A101D) | cleaved PARP positive nuclei fraction (A2058) | cleaved PARP positive nuclei fraction (A375) | cleaved PARP positive nuclei fraction (C32) | cleaved PARP positive nuclei fraction (CBRC008) | cleaved PARP positive nuclei fraction (CBRC014) | cleaved PARP positive nuclei fraction (CBRC016) | cleaved PARP positive nuclei fraction (CBRC017) | cleaved PARP positive nuclei fraction (CBRC034) | cleaved PARP positive nuclei fraction (COLO792) | cleaved PARP positive nuclei fraction (COLO800) | cleaved PARP positive nuclei fraction (COLO829) | cleaved PARP positive nuclei fraction (G361) | cleaved PARP positive nuclei fraction (IPC-298) | cleaved PARP positive nuclei fraction (IST-MEL1) | cleaved PARP positive nuclei fraction (LB2518-MEL) | cleaved PARP positive nuclei fraction (LOXIMVI) | cleaved PARP positive nuclei fraction (MEL-HO) |
| --- | --- | --- | --- | --- | --- | --- | --- | --- | --- | --- | --- | --- | --- | --- | --- | --- | --- | --- | --- |
| CC(=O)O[C@@]12CO[C@@H]1C[C@H](O)[C@@]1(C)C(=O)[C@H](O)C3=C(C)[C@@H](OC(=O)[C@H](O)[C@@H](NC(=O)OC(C)(C)C)c4ccccc4)C[C@@](O)([C@@H](OC(=O)c4ccccc4)[C@H]21)C3(C)C [Docetaxel] + CCCS(=O)(=O)Nc1ccc(F)c(C(=O)c2c[nH]c3ncc(Cl)cc23)c1F [PLX4720] (first compound 0.0001 µM, partner dose 0.08 µM) | 1350% | 180% | 2140% | 1970% | 186% | 303% | 142% | 274% | 213% | 108% | 480% | 230% | 113% | 476% | 101% | 71.8% | 127% | 160% | 81% |
| C[C@]1(O)C[C@@H](c2nc(-c3ccc4ccc(-c5ccccc5)nc4c3)c3c(N)nccn32)C1 + C[C@@H](Oc1cc(-c2cnn(C3CCNCC3)c2)cnc1N)c1c(Cl)ccc(F)c1Cl [Crizotinib] (first compound 0.4 µM, partner dose 0.2 µM) | 119% | 49.4% | 72.2% | 341% | 668% | 120% | 104% | 76% | 90.6% | 88.4% | 132% | 78.6% | 85.8% | 135% | 46.7% | 111% | 103% | 90.5% | 121% |
| NC1(c2ccc(-c3nc4ccn5c(=O)[nH]nc5c4cc3-c3ccccc3)cc2)CCC1 + C#Cc1cccc(Nc2ncnc3cc(OCCOC)c(OCCOC)cc23)c1 [erlotinib] (first compound 0.4 µM, partner dose 0.8 µM) | 197% | 277% | 97.3% | 167% | 78.4% | 388% | 93.4% | 106% | 101% | 277% | 221% | 71.2% | 130% | 109% | 170% | 134% | 121% | 105% | 147% |
| CN(c1ncccc1CNc1nc(Nc2ccc3c(c2)CC(=O)N3)ncc1C(F)(F)F)S(C)(=O)=O + CNC(=O)c1cc(Oc2ccc(NC(=O)Nc3ccc(Cl)c(C(F)(F)F)c3)cc2)ccn1 [sorafenib] (first compound 0.08 µM, partner dose 0.4 µM) | 64.3% | 101% | 230% | 238% | 112% | 28.2% | 102% | 146% | 98.4% | 91.4% | 222% | 66.4% | 215% | 155% | 187% | 72.7% | 94.7% | 127% | 66% |
| CCCCCCCCc1ccc(CCC(N)(CO)CO)cc1 [fingolimod] + COc1ccc(Cl)c(Nc2nc3ccccc3nc2NS(=O)(=O)c2cccc(NC(=O)C(C)(C)N)c2)c1 [XL147] (first compound 2 µM, partner dose 0.8 µM) | 178% | 49.7% | 61.3% | 412% | 75.6% | 95.5% | 105% | 93.5% | 108% | 76.8% | 101% | 69.1% | 116% | 154% | 63.4% | 48.3% | 226% | 98.3% | 116% |
| C[C@]1(O)C[C@@H](c2nc(-c3ccc4ccc(-c5ccccc5)nc4c3)c3c(N)nccn32)C1 + Cn1c(=O)n(-c2ccc(C(C)(C)C#N)cc2)c2c3cc(-c4cnc5ccccc5c4)ccc3ncc21 [NVP-BEZ235] (first compound 0.4 µM, partner dose 0.004 µM) | 220% | 124% | 57.3% | 738% | 167% | 170% | 130% | 95.5% | 116% | 151% | 103% | 183% | 189% | 128% | 290% | 70.6% | 239% | 67.6% | 114% |
| C[C@]1(O)C[C@@H](c2nc(-c3ccc4ccc(-c5ccccc5)nc4c3)c3c(N)nccn32)C1 + Cc1cc(Nc2cc(N3CCN(C)CC3)nc(/C=C/c3ccccc3)n2)n[nH]1 [ENMD2076] (first compound 0.4 µM, partner dose 0.04 µM) | 94.6% | 165% | 117% | 469% | 81.2% | 75.4% | 108% | 33.6% | 99.2% | 66% | 98.4% | 274% | 91.2% | 41.2% | 88.4% | 56.5% | 122% | 117% | 59.6% |
